We go through 42 sequences from publication PMC7819943, “Rice protein-binding microarrays: a tool to detect cis-acting elements near promoter regions in rice”.

The chains behind the UniProt entries cited, without tags or fusion partners.
UniProt Q0JBA9, entry or part of it: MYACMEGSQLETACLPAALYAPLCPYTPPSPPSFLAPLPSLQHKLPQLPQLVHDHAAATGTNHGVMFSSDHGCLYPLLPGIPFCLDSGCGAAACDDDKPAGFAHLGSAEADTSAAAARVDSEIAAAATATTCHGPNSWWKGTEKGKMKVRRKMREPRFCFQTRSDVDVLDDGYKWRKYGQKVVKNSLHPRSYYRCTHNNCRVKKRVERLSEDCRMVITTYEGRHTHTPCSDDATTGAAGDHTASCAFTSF

The other results are listed elsewhere or left out.

In the experiment the target is OsWRKY34 (Oryza sativa, UniProt Q0JBA9 1-250). In words: protein-binding microarray (RPBM); PBS, 2% BSA, 51.3 ng/ul salmon testes DNA, 50 uM zinc acetate, 200 nM TF, 25 C, 1 h; high values mean tight binding. Conditions: protein: recombinant; tags: N-terminal polyhistidine and DsRed monomer fusion (pET32a); label: CyDye5-dUTP incorporated in the synthesized complementary strand; 3' TTTTT single-stranded linker to array surface; dsDNA, one strand shown. The method, boiled down:
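Ni–NTA purification followed expression in E. coli BL21-CodonPlus of transcription factors fused N-terminally to a polyhistidine tag and DsRed. At 200 nM in PBS with 2% BSA, salmon testes DNA and 50 µM zinc acetate, the protein was incubated for 1 h at 25 °C with a custom Agilent array that had been primer-extended with Cy5-dUTP and blocked with 2% BSA. After washing, the array was read on an Axon 4000B scanner. The binding signal is per-feature fluorescence intensity in arbitrary units.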
On to “GATTTTGCTATACATCACTCGGGTGATTCTTTGCCTGATACGGAGTCACCTAGTGCAG”, for which the binding signal was 8620 fluorescence intensity (a.u.).

On to “TTTATTCTTTTTATATCATTTGATTCATTGTTAAATATACCGGAGTCACCTAGTGCAG”, for which the binding signal is 8220 fluorescence intensity (a.u.).

As to “GGGTCGGCCGGGGTGTCCGGTTGTCCAGCTGCCAGATTCACGGAGTCACCTAGTGCAG”, the binding signal was 8460 fluorescence intensity (a.u.).

For “CGCCGAGCCGCCGCCTCTGCTTCCGGGCCAGCCAACCTTTCGGAGTCACCTAGTGCAG”, the binding signal was 9140 fluorescence intensity (a.u.).

“GGCGATAGGGAGAGGGAGGAGTGGGTGGAGGAAGCGGATACGGAGTCACCTAGTGCAG”: the binding signal is 8840 fluorescence intensity (a.u.).

As to “GGCCGAAGCAGTGGTTTTCAAGTTGCGCCAACACATCGTCCGGAGTCACCTAGTGCAG”, the binding signal is 8950 fluorescence intensity (a.u.).

Turning to “AATCGCGATCCCTTGTGCTCACATCCCAAGCTTCCCAAGCCGGAGTCACCTAGTGCAG”, the binding signal is 8170 fluorescence intensity (a.u.).

In the case of “TTGTGTGTTGTAGTGGTGAGTGGTGTTTTGATGGTTTCTGCGGAGTCACCTAGTGCAG”, the binding signal is 8460 fluorescence intensity (a.u.).

Turning to “CGACACCAATTTTGTTACAACTGGCACAGCCCACCTTAATCGGAGTCACCTAGTGCAG”, the binding signal was 8350 fluorescence intensity (a.u.).

For the sequence “AATCTTTTATACATATAATCCCTCCGTTTCTAAATATTTACGGAGTCACCTAGTGCAG”, the binding signal was 8110 fluorescence intensity (a.u.).

For the sequence “GGTCCTTCTGCCTCTGTTTATGTTTTCCTGTTATTTCTGTCGGAGTCACCTAGTGCAG”, the binding signal was 11200 fluorescence intensity (a.u.).

In the case of “TTCGTTTGACTTTTGCCGTTTCAAATTTGAATTCTCGAAACGGAGTCACCTAGTGCAG”, the binding signal is 9080 fluorescence intensity (a.u.).

As to “GTTTCATAATCCTGTGTTCTTTTTGTTTACTATGGTTTTGCGGAGTCACCTAGTGCAG”, the binding signal was 11000 fluorescence intensity (a.u.).

For the sequence “GGATATCCGGTTTTGTGGTTGGGTGACGATTTTGTAATTCCGGAGTCACCTAGTGCAG”, the binding signal is 9010 fluorescence intensity (a.u.).

As to “TCTCTCTCTCTCTCGCCATCGTCACTGCGGCTGCTGCTGCCGGAGTCACCTAGTGCAG”, the binding signal is 8310 fluorescence intensity (a.u.).

For “ATCTTGTCATTTTACCATCCGTGTCTGTCGGACTCATGTCCGGAGTCACCTAGTGCAG”, the binding signal was 9280 fluorescence intensity (a.u.).

As to “GCCAGACAAGAACGGGAATAAGCAAATTGTTTGGTGGAACCGGAGTCACCTAGTGCAG”, the binding signal is 8940 fluorescence intensity (a.u.).

For “ACTCCACAACTCCACAAGCTTCCTGTCCAGTCTCCACTCGCGGAGTCACCTAGTGCAG”, the binding signal is 8820 fluorescence intensity (a.u.).

Turning to “AACCCTAGCTCTTCACAGCTTCCATGGCTCTTCTCTCTCTCGGAGTCACCTAGTGCAG”, the binding signal is 12500 fluorescence intensity (a.u.).

As to “CACTCCCATTCCCATCCTCCACATCCCGCGCCATCGACCTCGGAGTCACCTAGTGCAG”, the binding signal is 8520 fluorescence intensity (a.u.).

“TCTTTTGTGCATTTGTACTAATATGTTATGTTTGAGTATACGGAGTCACCTAGTGCAG”: the binding signal is 8160 fluorescence intensity (a.u.).

With “TTGAGAAGCCTCTGGAACACCTGCGATCCGTCCATCGTCTCGGAGTCACCTAGTGCAG”, the binding signal is 8340 fluorescence intensity (a.u.).

In the case of “GCCGTCACATTTATGCCACATCATTTTTTTTTCTTTTTTTCGGAGTCACCTAGTGCAG”, the binding signal is 11100 fluorescence intensity (a.u.).

Regarding “ATATGCTATACTTTATCAATGTTCTTGCCTTTATTTTCCACGGAGTCACCTAGTGCAG”, the binding signal was 9590 fluorescence intensity (a.u.).

“GTCTGTACCGGTTCTTCAAATCAACCAGCACGATGTATTACGGAGTCACCTAGTGCAG”: the binding signal is 8650 fluorescence intensity (a.u.).

In the case of “CTTCTTGGGCTTGGTGTACGTCTTCTTCTTGCGCTTCTTGCGGAGTCACCTAGTGCAG”, the binding signal was 9830 fluorescence intensity (a.u.).

As to “CCTCCGAATTGATATTTTGTTTTGAGAGATCTTGTTTACTCGGAGTCACCTAGTGCAG”, the binding signal was 8310 fluorescence intensity (a.u.).

Consider “CTCACATACGCTTGTTAACCCTTTCTTTCACGTGATGACTCGGAGTCACCTAGTGCAG”, for which the binding signal is 8200 fluorescence intensity (a.u.).

On to “CTGTTCTTGTACGTGTCATCGCCGCCGACCCAACCTGACCCGGAGTCACCTAGTGCAG”, for which the binding signal was 8150 fluorescence intensity (a.u.).

With “GACAGAGCTTGTTGACTATCAAGCGCTCCGTTCTGACTTCCGGAGTCACCTAGTGCAG”, the binding signal was 8920 fluorescence intensity (a.u.).

As for “CCCCACCCACCCCAACACAACACACGCGGTCACCTTCCCCCGGAGTCACCTAGTGCAG”, the binding signal was 8070 fluorescence intensity (a.u.).

“CCTGGGGCGCGTTTCCACTGCTTAAACCTTAAGCAAACCCCGGAGTCACCTAGTGCAG”: the binding signal was 8430 fluorescence intensity (a.u.).

As to “CCGCCATCGCTCACCGGTCCCGCCGCCACTCGCCGCTCGTCGGAGTCACCTAGTGCAG”, the binding signal was 10800 fluorescence intensity (a.u.).

Take “ACTCGGTCACTCTCACTCTTCATTTCGTCGAACACCTTTGCGGAGTCACCTAGTGCAG”: the binding signal was 10200 fluorescence intensity (a.u.).

For “AGTGTAATATCCGGTCTTTTTATTTTTATTTAAAACCATACGGAGTCACCTAGTGCAG”, the binding signal is 9360 fluorescence intensity (a.u.).

“TATTTTATGCGTGACTTATCTTTTTAATTTTTTTCATAATCGGAGTCACCTAGTGCAG”: the binding signal was 11100 fluorescence intensity (a.u.).

Consider “CCCATCACGATCTTTTGCATGCGTATTGACTGTTGAGCCCCGGAGTCACCTAGTGCAG”, for which the binding signal is 10600 fluorescence intensity (a.u.).

Consider “GCGAGGTCTTTCCCATTCGCTGCCTCCTCCGCCGCACTCACGGAGTCACCTAGTGCAG”, for which the binding signal is 8860 fluorescence intensity (a.u.).

In the case of “TCTGTTTTTTTTCTCTCTTCCGTACCTTTTTCGGTTTTCTCGGAGTCACCTAGTGCAG”, the binding signal is 10300 fluorescence intensity (a.u.).

As to “CGAATCCACTCGCCCCTCGCGTCGCCTCGCCGCACCAATGCGGAGTCACCTAGTGCAG”, the binding signal was 10400 fluorescence intensity (a.u.).

Take “ATGCATTTACCTGGTCTTTTTGGGTTGTGCGGCCACTTTCCGGAGTCACCTAGTGCAG”: the binding signal was 8130 fluorescence intensity (a.u.).

As to “CCGTGACAAGTGACTCAAATATGTTTCTTTTATTCCATTTCGGAGTCACCTAGTGCAG”, the binding signal was 10800 fluorescence intensity (a.u.).
